In PMC10112799:
These are yes or no findings as the source states them, for the method shown. For part of these data: Binding can be weak; no strength is given.

Chains of the proteins cited; added tags and fusions are not shown. Lines headed by an entry give the natural chain unless they say otherwise; changes in a name come on top. A line that says so, or that is headed by a name, gives the form on record, which may keep a tag or linker.
TLR2-Cub-TF bait F719A (O60603, form named): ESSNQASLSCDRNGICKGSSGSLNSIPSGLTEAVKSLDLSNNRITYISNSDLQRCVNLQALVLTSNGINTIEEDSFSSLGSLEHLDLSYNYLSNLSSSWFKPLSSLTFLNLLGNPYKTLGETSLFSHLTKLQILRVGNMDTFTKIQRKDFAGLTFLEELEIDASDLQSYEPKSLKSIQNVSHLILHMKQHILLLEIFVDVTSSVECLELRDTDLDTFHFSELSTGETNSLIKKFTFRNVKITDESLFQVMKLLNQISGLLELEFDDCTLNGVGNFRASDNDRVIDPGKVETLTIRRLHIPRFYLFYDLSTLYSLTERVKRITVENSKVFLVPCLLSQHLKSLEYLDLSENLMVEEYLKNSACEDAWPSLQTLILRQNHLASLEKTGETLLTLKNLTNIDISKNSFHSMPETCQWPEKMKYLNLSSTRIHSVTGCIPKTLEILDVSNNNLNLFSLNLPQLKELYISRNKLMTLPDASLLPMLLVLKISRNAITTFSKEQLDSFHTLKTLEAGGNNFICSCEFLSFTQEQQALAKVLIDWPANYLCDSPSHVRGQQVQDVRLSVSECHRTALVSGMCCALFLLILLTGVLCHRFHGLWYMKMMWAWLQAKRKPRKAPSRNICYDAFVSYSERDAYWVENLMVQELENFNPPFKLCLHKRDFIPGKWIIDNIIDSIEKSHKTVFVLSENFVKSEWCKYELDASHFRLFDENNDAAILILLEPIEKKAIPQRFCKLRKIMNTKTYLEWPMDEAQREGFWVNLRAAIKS
TLR2-Cub-TF bait W684A (O60603, form named): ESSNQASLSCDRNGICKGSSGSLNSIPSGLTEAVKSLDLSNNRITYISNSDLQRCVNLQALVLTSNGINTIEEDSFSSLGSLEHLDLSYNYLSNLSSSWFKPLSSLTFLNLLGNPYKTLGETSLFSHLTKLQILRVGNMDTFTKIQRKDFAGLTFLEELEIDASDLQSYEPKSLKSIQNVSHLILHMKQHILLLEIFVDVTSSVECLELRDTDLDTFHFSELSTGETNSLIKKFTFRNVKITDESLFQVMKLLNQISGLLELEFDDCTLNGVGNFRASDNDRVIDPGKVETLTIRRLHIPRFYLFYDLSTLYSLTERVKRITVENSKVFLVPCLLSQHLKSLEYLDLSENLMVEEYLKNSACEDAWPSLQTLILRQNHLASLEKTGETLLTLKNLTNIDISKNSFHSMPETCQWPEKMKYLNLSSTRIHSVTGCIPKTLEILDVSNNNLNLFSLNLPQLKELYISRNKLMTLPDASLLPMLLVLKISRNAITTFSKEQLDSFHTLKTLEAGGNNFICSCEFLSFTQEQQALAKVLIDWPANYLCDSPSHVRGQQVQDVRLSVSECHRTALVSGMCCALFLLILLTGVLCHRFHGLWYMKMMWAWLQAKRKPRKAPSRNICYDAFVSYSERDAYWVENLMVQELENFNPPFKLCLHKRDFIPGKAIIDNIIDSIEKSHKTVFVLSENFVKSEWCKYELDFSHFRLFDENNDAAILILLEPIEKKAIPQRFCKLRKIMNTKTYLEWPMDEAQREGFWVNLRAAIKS
TLR2-Cub-TF bait W684A/F719A double mutant (O60603, form named): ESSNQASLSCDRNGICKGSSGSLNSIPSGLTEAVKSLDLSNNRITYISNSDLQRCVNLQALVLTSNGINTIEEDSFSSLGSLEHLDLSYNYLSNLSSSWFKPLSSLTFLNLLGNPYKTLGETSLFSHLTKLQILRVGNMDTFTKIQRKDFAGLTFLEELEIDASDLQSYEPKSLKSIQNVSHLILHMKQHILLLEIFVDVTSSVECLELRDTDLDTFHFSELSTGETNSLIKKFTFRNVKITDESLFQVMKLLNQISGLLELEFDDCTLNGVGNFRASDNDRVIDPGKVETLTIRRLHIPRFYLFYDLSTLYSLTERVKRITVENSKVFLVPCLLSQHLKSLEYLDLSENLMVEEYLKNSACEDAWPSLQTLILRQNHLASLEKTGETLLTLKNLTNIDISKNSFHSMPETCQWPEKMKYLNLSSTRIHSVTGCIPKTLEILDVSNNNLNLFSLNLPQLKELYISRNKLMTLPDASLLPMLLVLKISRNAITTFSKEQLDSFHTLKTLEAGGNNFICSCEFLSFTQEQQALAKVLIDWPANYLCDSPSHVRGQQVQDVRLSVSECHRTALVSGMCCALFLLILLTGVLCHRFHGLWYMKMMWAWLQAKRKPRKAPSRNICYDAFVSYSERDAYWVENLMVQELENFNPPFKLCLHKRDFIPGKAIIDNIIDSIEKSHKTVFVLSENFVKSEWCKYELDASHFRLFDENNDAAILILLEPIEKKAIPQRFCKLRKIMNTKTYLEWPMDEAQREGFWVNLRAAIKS

Legend:
Assay in all cases: two-hybrid; Mammalian Membrane Two-Hybrid (MaMTH, split ubiquitin); TLR2-Cub-TF bait and Nub preys co-transfected in HEK293T 5xGAL4UAS-luciferase reporter cells; untreated, PAM, or P. gingivalis MOI 10 for 8 h; luciferase read-out
[1] = biological target: TLR2-Cub-TF bait F719A (UniProt O60603)
[2] = biological target: TLR2-Cub-TF bait W684A (UniProt O60603)
[3] = biological target: TLR2-Cub-TF bait W684A/F719A double mutant (UniProt O60603)

Substance: VCL-Nub prey (from UniProt P18206-2)
- binding [1]: binds
- binding [2]: binds
- binding [3]: no binding
